Experimental data: article PMC10454406
No constants are given. Whether binding was seen depends on the method and setting. In cells and extracts the contact can be indirect. Here binding means that the protein was enriched with, or labelled near, the bait; the list need not be complete.

Amino acid sequences for entries named in this document (tags omitted). Residues count along the entry.
UniProt P0DTC4: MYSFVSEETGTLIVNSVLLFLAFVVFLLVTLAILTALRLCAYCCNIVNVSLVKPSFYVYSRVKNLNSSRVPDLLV
UniProt P16070, residues 21-742: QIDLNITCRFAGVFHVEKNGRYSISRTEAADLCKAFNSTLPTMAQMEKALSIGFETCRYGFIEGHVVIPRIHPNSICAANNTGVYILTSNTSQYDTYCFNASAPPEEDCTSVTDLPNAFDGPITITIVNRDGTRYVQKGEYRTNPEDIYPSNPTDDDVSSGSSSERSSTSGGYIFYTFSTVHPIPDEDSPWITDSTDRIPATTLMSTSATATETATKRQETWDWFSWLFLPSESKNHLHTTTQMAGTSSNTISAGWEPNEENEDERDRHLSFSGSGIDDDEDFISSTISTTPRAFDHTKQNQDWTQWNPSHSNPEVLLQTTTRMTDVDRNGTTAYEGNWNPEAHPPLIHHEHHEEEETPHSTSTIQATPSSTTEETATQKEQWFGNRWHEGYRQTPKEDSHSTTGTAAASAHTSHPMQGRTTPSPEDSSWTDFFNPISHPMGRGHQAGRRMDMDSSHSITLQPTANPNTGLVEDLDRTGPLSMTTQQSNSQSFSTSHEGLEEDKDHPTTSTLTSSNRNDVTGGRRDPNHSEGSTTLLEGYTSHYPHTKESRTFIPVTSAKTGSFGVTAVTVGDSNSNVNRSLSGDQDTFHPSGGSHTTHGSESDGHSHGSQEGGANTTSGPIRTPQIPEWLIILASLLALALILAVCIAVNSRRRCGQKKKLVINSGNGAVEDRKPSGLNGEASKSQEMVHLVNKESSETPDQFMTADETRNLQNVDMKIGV
UniProt Q9HCE1: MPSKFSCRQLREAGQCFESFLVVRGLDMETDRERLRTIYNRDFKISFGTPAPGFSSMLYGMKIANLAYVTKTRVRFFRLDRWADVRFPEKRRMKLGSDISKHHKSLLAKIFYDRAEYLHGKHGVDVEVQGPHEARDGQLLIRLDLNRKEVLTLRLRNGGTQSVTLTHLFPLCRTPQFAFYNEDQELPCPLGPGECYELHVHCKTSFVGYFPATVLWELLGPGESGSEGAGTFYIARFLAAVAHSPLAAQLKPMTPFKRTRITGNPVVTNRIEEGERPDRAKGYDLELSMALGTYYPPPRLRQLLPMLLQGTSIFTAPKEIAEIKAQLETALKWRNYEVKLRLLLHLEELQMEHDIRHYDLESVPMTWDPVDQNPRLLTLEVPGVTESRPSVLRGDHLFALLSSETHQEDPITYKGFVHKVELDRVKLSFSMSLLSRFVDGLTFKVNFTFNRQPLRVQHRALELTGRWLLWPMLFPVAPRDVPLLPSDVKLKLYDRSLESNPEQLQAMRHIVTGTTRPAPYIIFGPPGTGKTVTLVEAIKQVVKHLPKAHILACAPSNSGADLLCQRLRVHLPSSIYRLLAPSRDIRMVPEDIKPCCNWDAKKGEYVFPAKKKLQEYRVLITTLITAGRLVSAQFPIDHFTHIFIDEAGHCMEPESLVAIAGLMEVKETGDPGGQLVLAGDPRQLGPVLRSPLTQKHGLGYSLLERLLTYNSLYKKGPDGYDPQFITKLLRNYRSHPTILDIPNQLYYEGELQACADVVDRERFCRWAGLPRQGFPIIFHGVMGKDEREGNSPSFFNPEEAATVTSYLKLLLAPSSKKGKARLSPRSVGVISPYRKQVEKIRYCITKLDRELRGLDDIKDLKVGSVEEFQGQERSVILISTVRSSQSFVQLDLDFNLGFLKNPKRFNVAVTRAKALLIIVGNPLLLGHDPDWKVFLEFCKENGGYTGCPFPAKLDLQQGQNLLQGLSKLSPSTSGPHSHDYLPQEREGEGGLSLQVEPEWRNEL
UniProt O95793: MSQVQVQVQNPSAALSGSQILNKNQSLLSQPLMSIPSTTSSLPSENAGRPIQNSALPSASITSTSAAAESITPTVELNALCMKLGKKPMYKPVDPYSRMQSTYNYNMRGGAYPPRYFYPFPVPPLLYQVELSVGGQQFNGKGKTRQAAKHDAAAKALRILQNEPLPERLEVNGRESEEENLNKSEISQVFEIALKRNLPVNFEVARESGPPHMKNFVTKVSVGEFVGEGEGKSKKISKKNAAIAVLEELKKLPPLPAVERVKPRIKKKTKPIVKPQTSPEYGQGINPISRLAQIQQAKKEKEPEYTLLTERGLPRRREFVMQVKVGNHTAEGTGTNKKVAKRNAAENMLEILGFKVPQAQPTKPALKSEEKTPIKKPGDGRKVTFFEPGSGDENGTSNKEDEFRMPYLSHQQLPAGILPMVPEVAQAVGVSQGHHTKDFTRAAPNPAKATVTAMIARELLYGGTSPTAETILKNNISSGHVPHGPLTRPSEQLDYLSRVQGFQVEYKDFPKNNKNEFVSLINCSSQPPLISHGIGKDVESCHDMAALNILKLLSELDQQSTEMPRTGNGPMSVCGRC
UniProt P20701, residues 26-1170: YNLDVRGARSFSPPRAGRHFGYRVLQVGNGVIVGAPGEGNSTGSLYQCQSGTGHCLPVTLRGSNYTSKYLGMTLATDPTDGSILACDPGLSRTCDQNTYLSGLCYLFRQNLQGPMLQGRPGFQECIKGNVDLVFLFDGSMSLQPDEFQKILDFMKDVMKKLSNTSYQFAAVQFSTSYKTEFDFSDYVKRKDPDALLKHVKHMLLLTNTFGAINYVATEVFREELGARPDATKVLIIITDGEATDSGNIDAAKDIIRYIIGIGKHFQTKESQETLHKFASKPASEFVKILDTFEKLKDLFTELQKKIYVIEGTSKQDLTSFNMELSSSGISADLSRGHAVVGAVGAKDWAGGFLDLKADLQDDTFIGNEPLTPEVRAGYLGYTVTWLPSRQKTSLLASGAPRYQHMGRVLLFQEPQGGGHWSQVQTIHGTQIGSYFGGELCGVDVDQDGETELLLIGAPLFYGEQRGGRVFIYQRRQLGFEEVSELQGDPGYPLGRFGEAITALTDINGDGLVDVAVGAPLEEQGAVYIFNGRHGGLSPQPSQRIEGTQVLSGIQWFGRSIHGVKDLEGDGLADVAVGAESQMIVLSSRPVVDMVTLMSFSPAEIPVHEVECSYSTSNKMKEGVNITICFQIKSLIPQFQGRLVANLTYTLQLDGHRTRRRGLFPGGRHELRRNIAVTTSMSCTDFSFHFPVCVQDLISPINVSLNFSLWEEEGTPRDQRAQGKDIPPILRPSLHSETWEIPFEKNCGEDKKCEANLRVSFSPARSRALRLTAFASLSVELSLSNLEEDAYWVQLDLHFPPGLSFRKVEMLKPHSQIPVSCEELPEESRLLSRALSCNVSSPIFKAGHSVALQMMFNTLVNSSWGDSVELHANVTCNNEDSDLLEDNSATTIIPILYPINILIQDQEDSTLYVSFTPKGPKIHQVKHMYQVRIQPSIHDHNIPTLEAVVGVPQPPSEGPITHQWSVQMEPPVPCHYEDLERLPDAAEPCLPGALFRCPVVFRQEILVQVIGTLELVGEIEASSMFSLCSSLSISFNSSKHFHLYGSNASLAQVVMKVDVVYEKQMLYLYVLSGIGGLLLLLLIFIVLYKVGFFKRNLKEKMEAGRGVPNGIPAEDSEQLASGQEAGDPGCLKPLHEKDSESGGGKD
UniProt Q14005, residues 702-1332: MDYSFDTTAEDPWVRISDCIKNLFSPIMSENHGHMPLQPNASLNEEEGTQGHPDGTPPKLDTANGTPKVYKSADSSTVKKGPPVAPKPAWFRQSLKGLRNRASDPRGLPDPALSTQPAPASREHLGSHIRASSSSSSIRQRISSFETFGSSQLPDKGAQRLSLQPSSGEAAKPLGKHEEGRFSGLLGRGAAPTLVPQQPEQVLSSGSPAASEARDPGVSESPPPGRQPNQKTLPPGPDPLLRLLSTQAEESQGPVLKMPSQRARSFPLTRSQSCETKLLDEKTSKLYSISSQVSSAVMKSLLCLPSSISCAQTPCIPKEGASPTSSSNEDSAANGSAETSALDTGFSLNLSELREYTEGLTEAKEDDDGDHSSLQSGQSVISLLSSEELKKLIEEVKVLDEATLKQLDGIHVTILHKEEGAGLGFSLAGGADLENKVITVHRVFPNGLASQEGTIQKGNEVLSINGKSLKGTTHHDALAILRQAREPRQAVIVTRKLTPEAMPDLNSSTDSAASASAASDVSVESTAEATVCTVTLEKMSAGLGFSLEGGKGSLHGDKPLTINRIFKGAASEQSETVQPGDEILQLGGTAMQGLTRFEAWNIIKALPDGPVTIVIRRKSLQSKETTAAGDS
UniProt O43166: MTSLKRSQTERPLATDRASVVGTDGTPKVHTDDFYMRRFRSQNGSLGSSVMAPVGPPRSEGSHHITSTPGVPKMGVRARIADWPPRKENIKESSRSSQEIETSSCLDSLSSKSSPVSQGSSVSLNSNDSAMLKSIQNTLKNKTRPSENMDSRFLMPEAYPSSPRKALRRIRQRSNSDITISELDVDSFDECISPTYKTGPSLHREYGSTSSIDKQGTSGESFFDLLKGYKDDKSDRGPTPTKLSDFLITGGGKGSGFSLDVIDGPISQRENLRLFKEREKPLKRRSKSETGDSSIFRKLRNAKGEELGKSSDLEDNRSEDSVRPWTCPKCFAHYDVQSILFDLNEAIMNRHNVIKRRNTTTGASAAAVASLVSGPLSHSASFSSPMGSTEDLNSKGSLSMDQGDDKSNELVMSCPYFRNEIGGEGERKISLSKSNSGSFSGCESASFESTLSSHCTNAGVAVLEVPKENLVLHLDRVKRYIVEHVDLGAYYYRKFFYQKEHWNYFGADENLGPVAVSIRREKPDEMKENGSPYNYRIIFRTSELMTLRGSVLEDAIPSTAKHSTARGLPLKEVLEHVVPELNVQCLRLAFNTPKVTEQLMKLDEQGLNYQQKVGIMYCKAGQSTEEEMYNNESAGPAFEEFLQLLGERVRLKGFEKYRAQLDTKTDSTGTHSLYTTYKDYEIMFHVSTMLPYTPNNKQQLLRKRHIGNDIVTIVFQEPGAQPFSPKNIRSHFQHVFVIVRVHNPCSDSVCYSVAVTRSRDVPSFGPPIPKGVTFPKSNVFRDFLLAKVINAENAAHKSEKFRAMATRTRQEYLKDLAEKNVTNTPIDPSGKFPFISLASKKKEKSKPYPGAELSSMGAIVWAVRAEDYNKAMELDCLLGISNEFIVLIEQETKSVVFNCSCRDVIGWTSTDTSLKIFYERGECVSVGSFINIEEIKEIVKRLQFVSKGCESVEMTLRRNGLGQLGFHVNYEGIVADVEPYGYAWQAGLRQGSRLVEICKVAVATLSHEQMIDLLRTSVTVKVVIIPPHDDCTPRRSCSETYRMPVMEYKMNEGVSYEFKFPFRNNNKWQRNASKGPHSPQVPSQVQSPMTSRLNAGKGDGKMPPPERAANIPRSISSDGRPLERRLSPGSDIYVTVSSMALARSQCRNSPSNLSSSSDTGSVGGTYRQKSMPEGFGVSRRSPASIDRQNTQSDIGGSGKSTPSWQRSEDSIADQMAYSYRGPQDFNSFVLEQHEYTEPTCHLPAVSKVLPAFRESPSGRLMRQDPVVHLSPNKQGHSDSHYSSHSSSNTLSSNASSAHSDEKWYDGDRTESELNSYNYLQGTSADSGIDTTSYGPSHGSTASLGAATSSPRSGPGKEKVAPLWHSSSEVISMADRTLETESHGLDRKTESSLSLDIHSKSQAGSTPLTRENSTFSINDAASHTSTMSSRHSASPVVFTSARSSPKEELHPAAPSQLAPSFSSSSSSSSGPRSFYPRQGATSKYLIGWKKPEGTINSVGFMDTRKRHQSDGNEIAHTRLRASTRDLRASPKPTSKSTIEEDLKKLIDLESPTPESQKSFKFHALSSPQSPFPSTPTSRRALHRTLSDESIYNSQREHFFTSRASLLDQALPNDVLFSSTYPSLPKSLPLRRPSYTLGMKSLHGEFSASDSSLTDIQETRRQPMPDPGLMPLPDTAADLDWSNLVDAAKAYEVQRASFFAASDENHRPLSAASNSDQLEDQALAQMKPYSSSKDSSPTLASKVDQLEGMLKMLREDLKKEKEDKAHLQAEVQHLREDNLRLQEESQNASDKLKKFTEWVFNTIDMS
UniProt O00560: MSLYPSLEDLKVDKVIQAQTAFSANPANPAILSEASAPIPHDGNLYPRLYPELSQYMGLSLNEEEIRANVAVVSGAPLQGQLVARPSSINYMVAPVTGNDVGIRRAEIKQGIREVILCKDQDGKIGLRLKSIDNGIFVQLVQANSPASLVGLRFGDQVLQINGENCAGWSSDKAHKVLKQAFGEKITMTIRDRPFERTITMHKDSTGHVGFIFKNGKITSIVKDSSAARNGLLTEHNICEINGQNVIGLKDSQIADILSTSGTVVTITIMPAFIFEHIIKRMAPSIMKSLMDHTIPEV

What follows are substances tested against GFP-SARS-CoV-2 E protein (wild-type E protein) (SARS-CoV-2) (UniProt P0DTC4) (assay: affinity purification with mass spectrometry).

Row | Substance | binding
1 | CD44 (from UniProt P16070 21-742) | binds
2 | MOV10A (from UniProt Q9HCE1 1-1003) | binds
3 | STAU1 (from UniProt O95793 1-577) | binds
4 | delphilin (from UniProt A4D2P6 1-1211) | binds
5 | integrin alpha L (from UniProt P20701 26-1170) | binds
6 | pro-interleukin 16 (from UniProt Q14005-3 1-631) | binds
7 | scribble human homolog (from UniProt Q14160 1-1655) | binds
8 | signal-induced proliferation-associated 1-like protein 1 (from UniProt O43166 1-1804) | binds
9 | syntenin-1 (from UniProt O00560 1-298) | binds
